Experimental findings from doi:10.1101/2025.03.04.641150 are described below.

Chains of the proteins cited; added tags and fusions are not shown.
UniProt Q13148: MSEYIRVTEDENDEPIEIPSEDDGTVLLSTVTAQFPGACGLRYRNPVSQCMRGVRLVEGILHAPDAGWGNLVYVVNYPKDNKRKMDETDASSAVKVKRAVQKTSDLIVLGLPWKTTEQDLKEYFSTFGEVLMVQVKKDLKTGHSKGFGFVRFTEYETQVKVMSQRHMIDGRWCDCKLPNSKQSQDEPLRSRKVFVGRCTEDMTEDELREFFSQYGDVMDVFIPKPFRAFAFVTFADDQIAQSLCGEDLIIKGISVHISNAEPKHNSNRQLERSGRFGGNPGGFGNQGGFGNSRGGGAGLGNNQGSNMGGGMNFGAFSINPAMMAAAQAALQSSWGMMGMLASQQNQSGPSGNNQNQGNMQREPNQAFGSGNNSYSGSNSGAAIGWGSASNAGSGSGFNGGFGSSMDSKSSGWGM

The target in this assay is TAR DNA-binding protein 43 (TDP-43) (human (endogenous in post-mortem brain tissue)) (UniProt Q13148). Nature of the assay: single-molecule pulldown.

No constants are given. Whether binding was seen depends on the method and setting. Some entries that bind do so weakly or less than the wild type.

B1: calnexin (CANX) (protein, UniProt P27824 21-592)
chain: HDGHDDDVIDIEDDLDDVIEEVEDSKPDTTAPPSSPKVTYKAPVPTGEVYFADSFDRGTLSGWILSKAKKDDTDDEIAKYDGKWEVEEMKESKLPGDKGLVLMSRAKHHAISAKLNKPFLFDTKPLIVQYEVNFQNGIECGGAYVKLLSKTPELNLDQFHDKTPYTIMFGPDKCGEDYKLHFIFRHKNPKTGIYEEKHAKRPDADLKTYFTDKKTHLYTLILNPDNSFEILVDQSVVNSGNLLNDMTPPVNPSREIEDPEDRKPEDWDERPKIPDPEAVKPDDWDEDAPAKIPDEEATKPEGWLDDEPEYVPDPDAEKPEDWDEDMDGEWEAPQIANPRCESAPGCGVWQRPVIDNPNYKGKWKPPMIDNPSYQGIWKPRKIPNPDFFEDLEPFRMTPFSAIGLELWSMTSDIFFDNFIICADRRIVDDWANDGWGLKKAADGAAEPGVVGQMIEAAEERPWLWVVYILTVALPVFLVILFCCSGKKQTSGMEYKKTDAPQPDVKEEEEEKEEEKDKGDEEEEGEEKLEEKQKSDAEEDGGTVSQEEEDRKPKAEEDEILNRSPRNRKPRRE
In the case of B1, the binding entry is “binds”.
